In PubChem BioAssay AID602256 (National Center for Advancing Translational Sciences (NCATS), 2012):
The shares of active, inactive and inconclusive entries below differ from those in the screen. A potency beside an inconclusive call is a rough fit, not a confirmed value. Calls of active or inactive are those of the source. The call rests on the fitted dose curve; in most records, active means well fitted curve in the direction sought with a large enough effect; inconclusive means small, poorly fitted or top-dose-only effect, or another doubt; inactive means no such curve, though single readings can be large or run the other way.

Chains of the proteins cited; added tags and fusions are not shown. Lines headed by an entry give the natural chain unless they say otherwise; changes in a name come on top.
UniProt Q9HBX9: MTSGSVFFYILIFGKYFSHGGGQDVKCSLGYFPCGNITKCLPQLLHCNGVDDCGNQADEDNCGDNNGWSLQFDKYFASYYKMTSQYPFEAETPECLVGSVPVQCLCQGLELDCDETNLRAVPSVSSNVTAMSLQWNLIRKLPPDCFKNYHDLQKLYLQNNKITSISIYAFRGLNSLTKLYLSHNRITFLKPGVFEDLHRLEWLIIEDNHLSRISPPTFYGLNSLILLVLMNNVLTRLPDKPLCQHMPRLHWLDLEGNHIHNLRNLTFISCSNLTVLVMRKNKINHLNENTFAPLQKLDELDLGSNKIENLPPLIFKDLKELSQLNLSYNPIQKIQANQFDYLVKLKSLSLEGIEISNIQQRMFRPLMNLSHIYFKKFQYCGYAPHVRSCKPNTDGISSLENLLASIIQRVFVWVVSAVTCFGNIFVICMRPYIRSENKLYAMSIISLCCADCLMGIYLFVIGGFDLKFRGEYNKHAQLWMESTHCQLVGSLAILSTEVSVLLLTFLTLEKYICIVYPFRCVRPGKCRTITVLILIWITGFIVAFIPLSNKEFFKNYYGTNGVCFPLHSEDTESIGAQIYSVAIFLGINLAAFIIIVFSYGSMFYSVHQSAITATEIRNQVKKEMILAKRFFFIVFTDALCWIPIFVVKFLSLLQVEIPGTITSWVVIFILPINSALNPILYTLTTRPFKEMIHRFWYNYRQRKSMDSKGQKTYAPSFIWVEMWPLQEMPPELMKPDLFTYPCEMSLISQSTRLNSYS

target: Relaxin receptor 1 (Homo sapiens) (UniProt Q9HBX9); assay: qHTS Assay for Agonists of the Relaxin Receptor RXFP1: RXFP1 SAR; details: HEK293T-RXFP1 cAMP TR-FRET, 30 min; efficacy: hits give high values
Description: The relaxin hormone is involved in the variety of biological functions in normal tissues and diseases. The role of relaxin is well-established in female reproduction and parturition, mammary gland and endometrial development, maintenance of myometrial quiescence during pregnancy. Relaxin signaling through its G protein-coupled receptor (GPCR) RXFP1 results in ECM remodeling through regulation of collagen deposition, cell invasiveness, proliferation and overall tissue homeostasis. […] Recombinant human relaxin (rhRlx) is currently being tested in clinical trials as a protective agent in congestive heart failure, in treating severe preeclampsia, and as an anti-fibrotic agent in systemic sclerosis. Upon relaxin binding RXFP1 activation leads to the activation of adenylate cyclase (AC) via Gs. cAMP will activate PKA, which phosphorylates many signaling proteins. Thus, detection of cAMP increase is an easy and reliable indication of relaxin receptor activation. To screen for agonists of the relaxin receptor, a HEK293T cell line stably transfected with RXFP1 was used. RXFP1 activation was assayed by changes in cAMP levels as detected with a time-resolved fluorescence energy transfer (TR-FRET) cAMP detection kit. NIH Chemical Genomics Center [NCGC] NIH Molecular Libraries Probe Production Centers Network [MLPCN] MLPCN Grant: R03 MH085705-01A1 Assay Submitter (PI): Alexander Agoulnik
This is a cell-based assay for cAMP second messenger response to screen for agonists of the RXFP1 receptor. The assay was conducted in the presence of a PDE4 inhibitor (Ro 20174). The cells were lysed and the cAMP levels were measured with a TR-FRET cAMP kit. Presence of cAMP in the cell lysate disrupts binding between the cryptate-labeled anti-cAMP and d2-labeled cAMP pair, leading to a decrease in the TR-FRET signal. Data were normalized to the controls for basal activity (buffer only) and 100% activity (29 nM porcine relaxin). The EC50 values were determined from concentration-response data modeled with the standard Hill equation 1536-well assay protocol for the HEK293 RXFP1 cAMP assay: (1) Add 3 ul HEK293 RXFP1 cell culture. 2000 cells/well in DMEM/F12, 10% FBS, 1x Pen/Strep (dispensed offline with MultiDrop Combi). (2) Incubate 16-24 hr at 37C, 5% CO2. (3) Add 1 ul 400uM Ro20174 in DPBS, 0.05% BSA, 0.005% Tween 20. (3) Add 23 nl compounds in DMSO solution. Final concentration was 0.5 - 58 uM. (4) Incubate 30 min at 37C, 5% CO2. (5) Add 1 ul cAMP-d2 in lysis buffer (HTRF cAMP HiRange kit, CisBio). (6) Add 1 ul anti-cAMP antibody-cryptate in lysis buffer (HTRF cAMP HiRange kit, CisBio). (7) Incubate 30 min at room temperature. (6) Detect the assay plate in a ViewLux plate reader (PerkinElmer) with Ex=320 nm, Em1=615 nm and Em2=665 nm. Keywords: relaxin, RXFP1, RXFP2, G-protein coupled receptor, cAMP, agonist, high throughput screening, MLSMR, MLSCN, NIH Roadmap, qHTS and NCGC

Structure (SMILES)	Potency	efficacy
COCCOc1ccccc1C(=O)Nc1ccccc1C(=O)Nc1cccc(C(F)(F)F)c1	active: 0.747 µM	–
CCOc1ccccc1-c1nc2c(C(=O)Nc3cccc(S(=O)(=O)C(F)(F)F)c3)cccc2[nH]1	–	inactive: 4.9%
COc1ccccc1CNc1ccccc1C(=O)Nc1cccc(C(F)(F)F)c1	inconclusive: 59.3 µM [activator]	–
O=C(Cc1ccccc1)Nc1ccccc1C(=O)Nc1cccc(C(F)(F)F)c1	active: 8.38 µM	–
COc1cccc(C(=O)Nc2ccccc2C(=O)Nc2cccc(C(F)(F)F)c2)c1	active: 1.88 µM	–
O=C(Nc1ccccc1)c1ccccc1NC(=O)C1CCCCC1	inconclusive: 94 µM [activator]	–
COc1ccccc1C(=O)Nc1ccccc1C(=O)Nc1cccc(SC(F)(F)F)c1	active: 0.297 µM	–
COCCOc1ccccc1C(=O)Nc1cccc(C(F)(F)F)c1	inconclusive: 374 µM [activator]	–
Cc1ccccc1NC(=O)c1ccccc1NC(=O)C1CCCCC1	inconclusive: 236 µM [activator]	–
O=C(Nc1cccc(-c2ccccc2C(F)(F)F)c1)c1ccccc1NC(=O)C1CCCCC1	active: 2.65 µM	–
COc1cccc(NC(=O)c2ccccc2NC(=O)C2CCCCC2)c1	inconclusive: 37.4 µM [activator]	–
Cc1ccc(NC(=O)c2ccccc2NC(=O)C2CCCCC2)cc1	inconclusive: 188 µM [activator]	–
CCOc1ccccc1S(=O)(=O)Nc1ccccc1C(=O)Nc1cccc(S(=O)(=O)C(F)(F)F)c1	–	inactive: -2.44%
COc1ccccc1C(=O)Nc1cccc(C(=O)Nc2cccc(C(F)(F)F)c2)c1	–	inactive: 1.37%
COCCNc1ccccc1C(=O)Nc1cccc(C(F)(F)F)c1	inconclusive: 59.3 µM [activator]	–
O=C(Nc1cccc(-c2ccccc2)c1)c1ccccc1NC(=O)C1CCCCC1	–	inconclusive: 15% [activator]
COc1ccccc1C(=O)Nc1ccc(C(=O)Nc2cccc(C(F)(F)F)c2)cc1	–	inactive: -2.02%
COc1ccccc1-c1ccccc1C(=O)Nc1cccc(C(F)(F)F)c1	–	inactive: -3.31%
COc1ccccc1C(=O)N(C)c1ccccc1C(=O)Nc1cccc(C(F)(F)F)c1	–	inactive: -2.4%
COc1ccccc1C(=O)Nc1ccccc1C(=O)N(C)c1cccc(C(F)(F)F)c1	inconclusive: 29.7 µM [activator]	–

Rewritten with bars between the fields: 6 of the compounds above.
Structure (SMILES) | Potency | efficacy
COCCOc1ccccc1C(=O)Nc1ccccc1C(=O)Nc1cccc(C(F)(F)F)c1 | active: 0.747 µM | –
CCOc1ccccc1-c1nc2c(C(=O)Nc3cccc(S(=O)(=O)C(F)(F)F)c3)cccc2[nH]1 | – | inactive: 4.9%
Cc1ccc(NC(=O)c2ccccc2NC(=O)C2CCCCC2)cc1 | inconclusive: 188 µM [activator] | –
COCCNc1ccccc1C(=O)Nc1cccc(C(F)(F)F)c1 | inconclusive: 59.3 µM [activator] | –
COc1ccccc1C(=O)Nc1ccc(C(=O)Nc2cccc(C(F)(F)F)c2)cc1 | – | inactive: -2.02%
COc1ccccc1-c1ccccc1C(=O)Nc1cccc(C(F)(F)F)c1 | – | inactive: -3.31%
